Measured values as given in PMC7819943, “Rice protein-binding microarrays: a tool to detect cis-acting elements near promoter regions in rice”.
The list shows a part of the results.

The chains behind the UniProt entries cited, without tags or fusion partners.
UniProt Q0JBA9, entry or part of it: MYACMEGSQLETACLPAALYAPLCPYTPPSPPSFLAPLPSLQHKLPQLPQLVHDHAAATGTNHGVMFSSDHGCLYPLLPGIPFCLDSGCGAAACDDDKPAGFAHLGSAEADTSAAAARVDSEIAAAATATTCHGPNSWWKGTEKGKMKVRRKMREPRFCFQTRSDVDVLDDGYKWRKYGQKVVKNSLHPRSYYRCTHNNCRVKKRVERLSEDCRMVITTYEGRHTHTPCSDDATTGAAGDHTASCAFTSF

Target: OsWRKY34 (Oryza sativa, UniProt Q0JBA9 1-250)
Assay: protein-binding microarray (RPBM); PBS, 2% BSA, 51.3 ng/ul salmon testes DNA, 50 uM zinc acetate, 200 nM TF, 25 C, 1 h; high values mean tight binding
Details: protein: recombinant; tags: N-terminal polyhistidine and DsRed monomer fusion (pET32a); label: CyDye5-dUTP incorporated in the synthesized complementary strand; 3' TTTTT single-stranded linker to array surface; dsDNA, one strand shown
Summary of the method: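 An Axon 4000B scanner gave the binding signal as per-feature fluorescence intensity in arbitrary units. This followed washing of a custom Agilent array that had been incubated for 1 h at 25 °C with 200 nM protein in PBS, 2% BSA, salmon testes DNA and 50 µM zinc acetate. The proteins were transcription factors fused at the N-terminus to polyhistidine and DsRed, expressed in E. coli BL21-CodonPlus and purified on Ni–NTA.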

Row | Sequence | binding signal
1 | AACTCAGTTCTATCCATCACGCACTTTGGAGTTTGTTCTTCGGAGTCACCTAGTGCAG | 8990 fluorescence intensity (a.u.)
2 | TGTAGCTTACTGCTTTGGTTTGGGCTGGTTGTGGATTGGACGGAGTCACCTAGTGCAG | 11900 fluorescence intensity (a.u.)
3 | CCTCCGTTTTCTCAATTCTACGTTTCAAAACTCTCTTATGCGGAGTCACCTAGTGCAG | 9080 fluorescence intensity (a.u.)
4 | GGGAGTATTATTGTATCATCAGTTTTTTCGCTATGGCATACGGAGTCACCTAGTGCAG | 11800 fluorescence intensity (a.u.)
5 | AGCACGCGAAAGCGATTATCTGTTCTTGTTTGGAGGAGTTCGGAGTCACCTAGTGCAG | 8230 fluorescence intensity (a.u.)
6 | CACTTCACCTTTTTTGCAAGATGCTACTACTAATTACTAACGGAGTCACCTAGTGCAG | 10400 fluorescence intensity (a.u.)
7 | ACAAATTCCTGACTTCACGGTTTTCTATTTGGTTGTAATACGGAGTCACCTAGTGCAG | 9590 fluorescence intensity (a.u.)
8 | TTCCTCGCCCACATCCTCATACACCCTTTTCGGTTACTGACGGAGTCACCTAGTGCAG | 8120 fluorescence intensity (a.u.)
9 | TGTCCGGTATTTTAAGTTTAGGGTGAGTAATATCTGGTTTCGGAGTCACCTAGTGCAG | 10600 fluorescence intensity (a.u.)
10 | TTGGTGTCTTTGTGTCGTCTTTTCATCTACCTTTGTTTTACGGAGTCACCTAGTGCAG | 11500 fluorescence intensity (a.u.)
11 | CTGGGCGGATTGGGCGTGGGGTCGAGGCGGAGGTGGCCGCCGGAGTCACCTAGTGCAG | 11500 fluorescence intensity (a.u.)
12 | GGGCGTACCATTTCGGAGGGGAGGCGGCAAGTGAACAAACCGGAGTCACCTAGTGCAG | 11700 fluorescence intensity (a.u.)
13 | GGTTTCCGTGTCCAACGTTTGACTGTCCGTCTTATTTGAACGGAGTCACCTAGTGCAG | 8570 fluorescence intensity (a.u.)
14 | GTGGTGGAGGAGGTGGGAGAGGAAGAGATAAGGCTGTGGGCGGAGTCACCTAGTGCAG | 8550 fluorescence intensity (a.u.)
15 | GTTTTCATCCCTCTAGACTTCTATCTTGTTTTTATTTCCACGGAGTCACCTAGTGCAG | 9110 fluorescence intensity (a.u.)
16 | GGCACGCTACTACTCCTACTATATGATAAAAAAACACTACCGGAGTCACCTAGTGCAG | 8150 fluorescence intensity (a.u.)
17 | AGATGTTTTGACTTTAGTCAAAGTCAAACTGCTTTAAGTTCGGAGTCACCTAGTGCAG | 11800 fluorescence intensity (a.u.)
18 | CTGCTCTCTCTCTCTCTTACGCTTTTGACCAACCGCTCCGCGGAGTCACCTAGTGCAG | 12000 fluorescence intensity (a.u.)
19 | GGAGAGAATCGGATTTAACAAACGGGGCTTTTAACTATTTCGGAGTCACCTAGTGCAG | 9100 fluorescence intensity (a.u.)
20 | ACAGTGCCATATATACTACTATTTTTTTTATCACGCATATCGGAGTCACCTAGTGCAG | 8720 fluorescence intensity (a.u.)
21 | TATTTTTTTCACATAGTGTTTGTTCTCCTACAGTCTCATCCGGAGTCACCTAGTGCAG | 9660 fluorescence intensity (a.u.)

2 entries from above, as a markdown table:

| Row | Sequence | binding signal |
| --- | --- | --- |
| 1 | AACTCAGTTCTATCCATCACGCACTTTGGAGTTTGTTCTTCGGAGTCACCTAGTGCAG | 8990 fluorescence intensity (a.u.) |
| 2 | TGTAGCTTACTGCTTTGGTTTGGGCTGGTTGTGGATTGGACGGAGTCACCTAGTGCAG | 11900 fluorescence intensity (a.u.) |

Further entries follow:

Row | Sequence | binding signal
22 | AAGCATCAATCCATTGCTTTTCTCACTGCACACCTGATTCCGGAGTCACCTAGTGCAG | 10300 fluorescence intensity (a.u.)
23 | ATTAAGGTTTAGCTCCTCTGTATCTGGCAACATCGCCATGCGGAGTCACCTAGTGCAG | 8040 fluorescence intensity (a.u.)
24 | GTTGAGCACAGATATTTGTTGGTGGCCTTGATCCCAGTGTCGGAGTCACCTAGTGCAG | 10000 fluorescence intensity (a.u.)
25 | TTCATCACCTCACATCACATCCAAAACTTTCCTACTCACACGGAGTCACCTAGTGCAG | 8920 fluorescence intensity (a.u.)
26 | GCGGCGGAATTCGATCGCGGTTTGGTTTGGTTTGGTTTGACGGAGTCACCTAGTGCAG | 14900 fluorescence intensity (a.u.)
27 | ACTCACATAAACTTCCAATTTTTCTGTCACATCGTTCCAACGGAGTCACCTAGTGCAG | 10600 fluorescence intensity (a.u.)
28 | ACCATGAATCGAATCCAGACAAGTTTTTTATGCATATTTACGGAGTCACCTAGTGCAG | 9430 fluorescence intensity (a.u.)
29 | TGGTTTTGGATGAATTTAGTTTGATTTCTTTACAAAATTCCGGAGTCACCTAGTGCAG | 8270 fluorescence intensity (a.u.)
30 | CTTGTGCTCTCTCCTCATTTTTCAGGCGTTTCGAATTATTCGGAGTCACCTAGTGCAG | 8420 fluorescence intensity (a.u.)
31 | TGTGTCATCTTGTCTATGGTAGTTCAGCAATCCTCTGCTTCGGAGTCACCTAGTGCAG | 8890 fluorescence intensity (a.u.)
32 | ATTCCCCATCACCTTCACTGGTCACTGTTTCTATCACAAGCGGAGTCACCTAGTGCAG | 8550 fluorescence intensity (a.u.)
33 | GAGCCCAACATCGCCAACTACTGGCAGAGCTCTTTTGATGCGGAGTCACCTAGTGCAG | 8320 fluorescence intensity (a.u.)
34 | ATGATTTTCTGTGTCCAACTTTGATCATCTGTCTTATTTACGGAGTCACCTAGTGCAG | 10600 fluorescence intensity (a.u.)
35 | TATCTATGTAGCCTTTGTTTTCACCTCCATTAGCTATTTACGGAGTCACCTAGTGCAG | 8080 fluorescence intensity (a.u.)
36 | TCCTCCTCATCATCGCCTCGTGCTCCTCTCGAACCTTCCACGGAGTCACCTAGTGCAG | 8040 fluorescence intensity (a.u.)
37 | AACGTTTGACTGTTCGTTTTATTTAATTTTTTTATGATTACGGAGTCACCTAGTGCAG | 11700 fluorescence intensity (a.u.)
38 | AGATTTTTTTATCCCTACTTTTCCTTGATTTTTTTAATTTCGGAGTCACCTAGTGCAG | 8520 fluorescence intensity (a.u.)
39 | GGTCCATCACTCCAAGGTCAGTGCTTTTTTATTTACTCTACGGAGTCACCTAGTGCAG | 14600 fluorescence intensity (a.u.)
40 | CTTGGCGTCTTACATCCTTTCTTTCGTTGGCATATTTGTTCGGAGTCACCTAGTGCAG | 12500 fluorescence intensity (a.u.)
41 | GCAGCTTCACACTCCCACTCCCACTTCTCTCTCTACAATCCGGAGTCACCTAGTGCAG | 8350 fluorescence intensity (a.u.)
42 | TTGCTGCTTCTTTCTCAATTATTTCTCCTGTTCCTCTTCTCGGAGTCACCTAGTGCAG | 10300 fluorescence intensity (a.u.)
